The target of this assay is GST-fused HDGF (human) (UniProt P51858). Nature of the assay: pull-down; GST-HDGF on Glutathione-Sepharose 4B beads, washed with NETN buffer, added to E. coli lysate (300 μL) containing 6xHis-tagged NCL proteins; 1 hour on ice; washed with NETN buffer; blotted with anti-6xHis and anti-GST antibodies; only the target purified.

Amino acid sequences for entries named in this document (tags omitted). A change or cut given only in a name is not applied to a line headed by its entry.
UniProt P51858: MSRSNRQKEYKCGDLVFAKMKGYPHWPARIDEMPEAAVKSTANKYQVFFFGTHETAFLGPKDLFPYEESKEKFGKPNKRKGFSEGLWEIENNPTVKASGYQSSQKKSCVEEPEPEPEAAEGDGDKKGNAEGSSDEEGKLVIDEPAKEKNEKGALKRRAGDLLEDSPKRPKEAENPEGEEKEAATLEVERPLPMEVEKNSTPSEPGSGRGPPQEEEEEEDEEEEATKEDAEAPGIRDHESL
UniProt P19338: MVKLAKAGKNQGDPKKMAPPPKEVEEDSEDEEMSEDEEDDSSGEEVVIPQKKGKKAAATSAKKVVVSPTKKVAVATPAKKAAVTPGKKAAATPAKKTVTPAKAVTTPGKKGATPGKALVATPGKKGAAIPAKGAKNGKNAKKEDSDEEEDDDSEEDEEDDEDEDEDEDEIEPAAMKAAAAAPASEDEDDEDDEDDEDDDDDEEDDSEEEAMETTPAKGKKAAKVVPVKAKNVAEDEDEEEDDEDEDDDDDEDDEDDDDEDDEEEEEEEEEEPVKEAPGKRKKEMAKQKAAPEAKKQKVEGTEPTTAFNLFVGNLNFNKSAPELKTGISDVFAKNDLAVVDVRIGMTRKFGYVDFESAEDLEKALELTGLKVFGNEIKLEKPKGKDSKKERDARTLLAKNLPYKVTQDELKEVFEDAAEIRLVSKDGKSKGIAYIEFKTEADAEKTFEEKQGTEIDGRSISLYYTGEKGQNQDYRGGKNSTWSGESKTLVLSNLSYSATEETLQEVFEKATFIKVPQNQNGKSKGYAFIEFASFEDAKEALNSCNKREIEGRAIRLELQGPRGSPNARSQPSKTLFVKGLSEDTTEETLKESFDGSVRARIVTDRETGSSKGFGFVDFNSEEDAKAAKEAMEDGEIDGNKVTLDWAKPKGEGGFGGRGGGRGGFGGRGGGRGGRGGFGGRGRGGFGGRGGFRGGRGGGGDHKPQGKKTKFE

Two substances from PMC4599268 can be followed below.

These are yes or no findings as the source states them, for the method shown. Binding seen in cells or lysates may run through a third protein. Some binding calls cover weakened binding; strength is not graded here.

On to “6xHis-tagged NCL1 (N-terminal domain of NCL, residues 1-284) (from UniProt P19338 1-284) (domain or fragment)”, for which the binding entry is recorded as “binds”.
For “6xHis-tagged NCL residues 1-707 (from UniProt P19338 1-707)” the value was “binds”.
